# Measured values as given in PubChem BioAssay AID504444 (National Center for Advancing Translational Sciences (NCATS), 2011).
# About 7,500 (2.1%) of roughly 360,000 compounds were called active. Inconclusive means that the source gave no clear call. Such entries were picked first, then a sample of the others. The call rests on the fitted dose curve; in most records, active means well fitted inhibition curve with a large enough effect; inconclusive means small, poorly fitted or top-dose-only effect, or effect the other way; inactive means flat fitted curve, though single readings scatter. Where the call is inconclusive, the potency comes from a doubtful curve fit.
# Test: Nrf2 qHTS screen for inhibitors; further: nearly all actives have a fitted effect of over 60% in size
# Conditions: A549 ARE-Fluc reporter, luciferase luminescence, 18-24 h; activity change, negative = inhibition: at 46 µM (top of the series)
# In short: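 Nrf2 function is reported as luminescence of an ARE-controlled luciferase in A549 cells. Compounds were tested at several concentrations, and a CellTiter-Fluor read on the same wells flagged cytotoxicity.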
# On the % scale 0 is the no-effect control and ±100 the full control effect; potency means the concentration at half of the fitted maximal effect.
SMILES,Potency,"activity change, negative = inhibition"
Cc1cc(C)cc(NS(=O)(=O)c2ccc3[nH]cc(C(=O)NCCc4ccccc4)c(=O)c3c2)c1,"inconclusive: 16.4 µM [falling, single point]",–
O=C(NCc1cccnc1)c1ccccc1NS(=O)(=O)c1ccc(Br)cc1,"inconclusive: 20.6 µM [falling, partial curve, poor fit]",–
CC(C)NC(=O)COc1ccc(Cl)cc1Cl,"inconclusive: 11.6 µM [falling, partial curve, poor fit]",–
COc1ccc(CNC(=O)C2CCN(S(=O)(=O)c3ccc4c(c3)NC(=O)C(C)S4)CC2)cc1 (configuration not stated),"inconclusive: 23.1 µM [falling, partial curve]",–
COc1ccccc1-c1nnc(NC(=O)CSc2nncn2C)s1,"inconclusive: 29.1 µM [falling, single point]",–
COc1ccc(OC)c(NC(=O)c2csc(Cl)c2OC)c1,–,inactive: 9.83%
CCCc1nn(C)c2c(=O)[nH]c(-c3cc(S(N)(=O)=O)ccc3OCC)nc12,"inconclusive: 0.651 µM [falling, full curve, poor fit]",–
O=C(NCc1ccc2c(c1)OCO2)c1cccc(S(=O)(=O)N2CCCCC2)c1,active: 14.6 µM,–
O=C(Nc1nccc(-c2cccs2)n1)c1cccs1,"inconclusive: 4.11 µM [activator, full curve, poor fit]",–
Cc1ccc(NC(=O)c2oc3c(c2C)-c2[nH]ncc2CC3)c(Cl)c1,"inconclusive: 23.1 µM [falling, partial curve]",–
CCOC(=O)N1CCC(N2C(=O)c3ccc(C(=O)Nc4cccc(OC)c4)cc3C2=O)CC1,"inconclusive: 18.4 µM [falling, single point]",–
O=C(OCc1ccccc1)N1CCC2CC1c1cc(N3CCCCC3)ccc12 (configuration not stated),"inconclusive: 16.4 µM [activator, partial curve]",–
CN(CCOc1ccc(Cl)cc1)C(=O)C1CCN(C(=O)c2ccc(Cl)cc2)CC1,"inconclusive: 16.4 µM [falling, partial curve, poor fit]",–
CC(=O)Nc1ccc(NC(=O)COc2ccc(S(=O)(=O)N3CCCC3)cc2C)cc1,"inconclusive: 2.06 µM [activator, partial curve, poor fit]",–
CN(Cc1cn[nH]c1-c1ccc2c(c1)OCO2)C1CCOCC1,"inconclusive: 18.4 µM [activator, single point]",–
Cc1ccc(C(=O)N/N=C\c2cc3c(cc2Br)OCO3)s1,"inconclusive: 20.6 µM [falling, partial curve, poor fit]",–
COc1ccc(-c2csc(Nc3cccnc3)n2)cc1OC,"inconclusive: 5.17 µM [falling, partial curve]",–

# Ordered by molar mass (low to high): part of the list above.
SMILES,Potency,"activity change, negative = inhibition"
CN(Cc1cn[nH]c1-c1ccc2c(c1)OCO2)C1CCOCC1,"inconclusive: 18.4 µM [activator, single point]",–
O=C(OCc1ccccc1)N1CCC2CC1c1cc(N3CCCCC3)ccc12 (configuration not stated),"inconclusive: 16.4 µM [activator, partial curve]",–
O=C(NCc1ccc2c(c1)OCO2)c1cccc(S(=O)(=O)N2CCCCC2)c1,active: 14.6 µM,–
